# According to publication PMC7819943, “Rice protein-binding microarrays: a tool to detect cis-acting elements near promoter regions in rice”:
# The other results are listed elsewhere or left out.
# Target: T1, OsSMF1 (Oryza sativa, UniProt Q6ZLB0 1-436)
# T1 sequence: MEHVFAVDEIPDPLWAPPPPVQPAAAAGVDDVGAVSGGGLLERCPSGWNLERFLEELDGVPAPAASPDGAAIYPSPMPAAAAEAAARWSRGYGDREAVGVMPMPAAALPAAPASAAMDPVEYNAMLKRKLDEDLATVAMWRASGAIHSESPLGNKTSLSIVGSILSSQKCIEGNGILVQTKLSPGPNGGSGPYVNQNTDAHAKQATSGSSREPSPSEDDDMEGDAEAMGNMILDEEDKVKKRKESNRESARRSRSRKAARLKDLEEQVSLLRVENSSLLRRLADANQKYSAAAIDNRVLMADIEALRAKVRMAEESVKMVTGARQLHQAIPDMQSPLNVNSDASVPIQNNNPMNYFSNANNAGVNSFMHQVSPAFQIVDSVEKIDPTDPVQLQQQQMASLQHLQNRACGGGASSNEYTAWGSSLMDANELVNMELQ
# Assay: protein-binding microarray (RPBM); PBS, 2% BSA, 51.3 ng/ul salmon testes DNA, 50 uM zinc acetate, 200 nM TF, 25 C, 1 h; high values mean tight binding
# Conditions: protein: recombinant; tags: N-terminal polyhistidine and DsRed monomer fusion (pET32a); chain copies: 2; label: CyDye5-dUTP incorporated in the synthesized complementary strand; 3' TTTTT single-stranded linker to array surface; dsDNA, one strand shown
# Summary of the method: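 An Axon 4000B scanner gave the binding signal as per-feature fluorescence intensity in arbitrary units. This followed washing of a custom Agilent array that had been incubated for 1 h at 25 °C with 200 nM protein in PBS, 2% BSA, salmon testes DNA and 50 µM zinc acetate. The proteins were transcription factors fused at the N-terminus to polyhistidine and DsRed, expressed in E. coli BL21-CodonPlus and purified on Ni–NTA.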
row,Sequence,binding signal
1,GCGGTTAATTATTGAACATCATGCGTAAGTCATGCAACTTCGGAGTCACCTAGTGCAG,3810 fluorescence intensity (a.u.)
2,GCGCGAGGCTTCCACCGTGGACGCGCCTCCTGCCGATAAACGGAGTCACCTAGTGCAG,3460 fluorescence intensity (a.u.)
3,GCATCCGTGCGCCTCGATTGTTGCATCCCAGATGCCACGTCGGAGTCACCTAGTGCAG,5610 fluorescence intensity (a.u.)
4,CGCCACGGGTGCCCGCGTCATCCCATCCCCTCGCGCGTCGCGGAGTCACCTAGTGCAG,5990 fluorescence intensity (a.u.)
5,CAGGGTATGAATCACGTGGAGAACAATTCTGATGTTCGCCCGGAGTCACCTAGTGCAG,3680 fluorescence intensity (a.u.)
6,TCGCCCGCCCAAAGCGGCAAAGCGGTGACGCAAACTCGTTCGGAGTCACCTAGTGCAG,3580 fluorescence intensity (a.u.)
7,GGAAGGACGCCCAGCCGCCACGTGCACAGCTCATAGCCACCGGAGTCACCTAGTGCAG,8480 fluorescence intensity (a.u.)
8,CACGACCATGGTGACGATGGCATCACACTCCGCCATTGCACGGAGTCACCTAGTGCAG,5220 fluorescence intensity (a.u.)
9,CTCATGAGCTCACAAATATTATATGACGCAACCAAAGCTACGGAGTCACCTAGTGCAG,3370 fluorescence intensity (a.u.)
10,ACGCCGTGCGCGCTGACGTCACTCTCGAGTTGGCCAAAAGCGGAGTCACCTAGTGCAG,17000 fluorescence intensity (a.u.)
11,TTGAAATGTTTAGTTCTGAGAAATGAGCTGTCATATGCCACGGAGTCACCTAGTGCAG,7440 fluorescence intensity (a.u.)
12,TAAACCCTAAGCTCAAAGCCATCTTTCCTCAAAAGGCAAACGGAGTCACCTAGTGCAG,16300 fluorescence intensity (a.u.)
13,TGGTGGTGGTGGTGGCTGTAGTGTGGAGGTGGTGGGGAGTCGGAGTCACCTAGTGCAG,4660 fluorescence intensity (a.u.)
14,GTGACACCGCCAGGTGTGCCCCACCTGTCACCCTCCAGCGCGGAGTCACCTAGTGCAG,4000 fluorescence intensity (a.u.)
15,CCAATCCGAGCGGTCGTCGGCGCCGTTCCACACCATGGCTCGGAGTCACCTAGTGCAG,6430 fluorescence intensity (a.u.)
16,CGCCGCGCAACACCACCGACGACGACGTCAACCCGCACCCCGGAGTCACCTAGTGCAG,4380 fluorescence intensity (a.u.)
17,CCGACCCTGCCACCGTCATCTGACGACGTTTTCCCAGGGCCGGAGTCACCTAGTGCAG,8470 fluorescence intensity (a.u.)
18,TACATTTTGAAGGTGGGAGGGTAGGATAGTAATTTCGCATCGGAGTCACCTAGTGCAG,4070 fluorescence intensity (a.u.)
19,GACGACTGCTGGTACACGGACATGAGGCTGCAGCCGACGACGGAGTCACCTAGTGCAG,3480 fluorescence intensity (a.u.)
20,ATTATAGTTTTGTGATGACTTGTAAATCCGTAGATTTGTGCGGAGTCACCTAGTGCAG,5000 fluorescence intensity (a.u.)
21,TCGCGAGTGACGCAGCTCCCATCAGCAGCAACGAGCTCTGCGGAGTCACCTAGTGCAG,5180 fluorescence intensity (a.u.)

# Reprinted at random: 4 records from the list.
row,Sequence,binding signal
2,GCGCGAGGCTTCCACCGTGGACGCGCCTCCTGCCGATAAACGGAGTCACCTAGTGCAG,3460 fluorescence intensity (a.u.)
4,CGCCACGGGTGCCCGCGTCATCCCATCCCCTCGCGCGTCGCGGAGTCACCTAGTGCAG,5990 fluorescence intensity (a.u.)
1,GCGGTTAATTATTGAACATCATGCGTAAGTCATGCAACTTCGGAGTCACCTAGTGCAG,3810 fluorescence intensity (a.u.)
7,GGAAGGACGCCCAGCCGCCACGTGCACAGCTCATAGCCACCGGAGTCACCTAGTGCAG,8480 fluorescence intensity (a.u.)

# Following part:

row,Sequence,binding signal
1,CACTAGTAAAGGGAGTCACTCCCGAACTTATTCCAATCCGCGGAGTCACCTAGTGCAG,4310 fluorescence intensity (a.u.)
2,GATTTGCGGATAGGCGCCACGCGCGCGCTGCGACGTTACACGGAGTCACCTAGTGCAG,4020 fluorescence intensity (a.u.)
3,TCCCCTTCTTCACCGATGCGGCGATGCGCGCGCCTTCTTCCGGAGTCACCTAGTGCAG,27500 fluorescence intensity (a.u.)
4,AGAGTTACTAACTACAAAGTTGTAGATCTCCTTGAGCTCTCGGAGTCACCTAGTGCAG,7900 fluorescence intensity (a.u.)
5,TCTCAACTTCTCCACGTTTTCTTGATGTATGCGGAAGCCCCGGAGTCACCTAGTGCAG,3940 fluorescence intensity (a.u.)
6,CTCTTGTGCAAAACTGCCAGATCAGATTCAGATGCATTCTCGGAGTCACCTAGTGCAG,3380 fluorescence intensity (a.u.)
7,CATTGGTTGATGTGTCGTCCAAAAGAGATGTTATAGTTTGCGGAGTCACCTAGTGCAG,4230 fluorescence intensity (a.u.)
8,TTCTATAATCCATGATTACTCAGCAAAATTTGACCAAATTCGGAGTCACCTAGTGCAG,5340 fluorescence intensity (a.u.)
9,TACTTAAGTGCCAAGTGTCAAAGTGTGTGTGGTTTTCTGCCGGAGTCACCTAGTGCAG,4130 fluorescence intensity (a.u.)
10,CCCTCCAGAGGTTGCACTGCCACGTGGATTGCCCTATCATCGGAGTCACCTAGTGCAG,13300 fluorescence intensity (a.u.)
11,AATGCTGCAATTTCTCGTTGACTAGACTTCACATGCAGCTCGGAGTCACCTAGTGCAG,5400 fluorescence intensity (a.u.)
12,CCTAGATTGCGCCGCACCACGCCACCACGTACGCACGCGTCGGAGTCACCTAGTGCAG,12700 fluorescence intensity (a.u.)
13,ACGAGCAAACTTCCTCGACGCTGCCACGTCACTGGCAACGCGGAGTCACCTAGTGCAG,27200 fluorescence intensity (a.u.)
14,GTAAACTCATCTGAAAGGAAGAAAATTTACGATTTTGCTACGGAGTCACCTAGTGCAG,31900 fluorescence intensity (a.u.)
15,TGGCGGATCCGGCGGCGGGGAGCCGACGGAGACAGGGAAGCGGAGTCACCTAGTGCAG,33900 fluorescence intensity (a.u.)
16,GATTGTTGCTTAAGTCAGTGACACAGACAAACCCGAAGCACGGAGTCACCTAGTGCAG,4120 fluorescence intensity (a.u.)
17,GTCATCAATCCGCGCCTCCTCCCGTGATCTCAATCCCAACCGGAGTCACCTAGTGCAG,31600 fluorescence intensity (a.u.)
18,ATATACTCTACTTTATGAGTCAGGCTGTGTTTAGTTCAGTCGGAGTCACCTAGTGCAG,3960 fluorescence intensity (a.u.)
19,TGGCATTATATTTAAGCAGCCTTTGCTGACGAGTACTCATCGGAGTCACCTAGTGCAG,5300 fluorescence intensity (a.u.)
20,TCAACCGATCACGGGAGTGACACACCTCCACTATAGGTGTCGGAGTCACCTAGTGCAG,5020 fluorescence intensity (a.u.)
21,TATGGTTTGATTAGATTTAAGAACTTGTTTTGGTCTCTATCGGAGTCACCTAGTGCAG,35300 fluorescence intensity (a.u.)
